{"source": "PubChem BioAssay AID1508597 – Cure First | 2020", "assay": "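Survival screen with siRNA in ovarian cancer cells derived from patients, with or without rucaparib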 (primary screen)", "system": "human ovarian carcinoma lines grown from tumours: OCI-P5x (papillary serous) and OCI-C5x (clear cell)", "reagent": "siRNA pool against human genes, 1.25 pmol siRNA per well", "time to read-out": "72 h or 96 h, depending on the cell culture", "conditions": "rucaparib 20 µM (about IC30) or vehicle, present until read-out", "rucaparib or vehicle": "Vehicle", "cell line": "OCI-P5x (serous)", "read-out": "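Luminescent ATP-based viability assay read 72 or 96 h after transfection, depending on culture, given as normalised percent viability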", "direction": "viability, normalised: higher = more viable cells remaining", "call rule": "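Active when normalised viability falls below 80 percent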", "calls": "active = viability under 80%; inactive = viability 80% or more", "note": "Shown is a random part of the about 2,100 reagents, under one of the conditions tested. 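Calls flag viability under 80% in either arm, not effects specific to rucaparib; the reference for percent is not stated.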 Entries without a mark were called inactive. Some reagents were tested in more than one well and are listed for each. The record does not give: the 100% reference."}
{"gene": "HLTF", "technical replicate": "1", "viability, normalised (%)": "68.9 (active)"}
{"gene": "HLTF", "technical replicate": "2", "viability, normalised (%)": "79.8 (active)"}
{"gene": "HLTF", "technical replicate": "3", "viability, normalised (%)": 112}
{"gene": "NFATC1", "technical replicate": "1", "viability, normalised (%)": "42.2 (active)"}
{"gene": "NFATC1", "technical replicate": "2", "viability, normalised (%)": "57.2 (active)"}
{"gene": "NFATC1", "technical replicate": "3", "viability, normalised (%)": "63.5 (active)"}
{"gene": "VCAM1", "technical replicate": "1", "viability, normalised (%)": 96.3}
{"gene": "VCAM1", "technical replicate": "2", "viability, normalised (%)": 90.4}
{"gene": "VCAM1", "technical replicate": "3", "viability, normalised (%)": 90.6}

Targets above whose gene name starts with N or n:
{"gene": "NFATC1", "technical replicate": "1", "viability, normalised (%)": "42.2 (active)"}
{"gene": "NFATC1", "technical replicate": "2", "viability, normalised (%)": "57.2 (active)"}
{"gene": "NFATC1", "technical replicate": "3", "viability, normalised (%)": "63.5 (active)"}

Continued.
{"gene": "CDK11A", "technical replicate": "1", "viability, normalised (%)": 105}
{"gene": "CDK11A", "technical replicate": "1", "viability, normalised (%)": "73.1 (active)"}
{"gene": "CDK11A", "technical replicate": "2", "viability, normalised (%)": 87.9}
{"gene": "CDK11A", "technical replicate": "2", "viability, normalised (%)": "73.3 (active)"}
{"gene": "CDK11A", "technical replicate": "3", "viability, normalised (%)": "69.4 (active)"}
{"gene": "CDK11A", "technical replicate": "3", "viability, normalised (%)": 93.4}
{"gene": "TRMT112", "technical replicate": "1", "viability, normalised (%)": "50.7 (active)"}
{"gene": "TRMT112", "technical replicate": "2", "viability, normalised (%)": "72.3 (active)"}
{"gene": "TRMT112", "technical replicate": "3", "viability, normalised (%)": "70.4 (active)"}
{"gene": "PTPRC", "technical replicate": "1", "viability, normalised (%)": "35.7 (active)"}
{"gene": "PTPRC", "technical replicate": "2", "viability, normalised (%)": "58.4 (active)"}
{"gene": "PTPRC", "technical replicate": "3", "viability, normalised (%)": "68.1 (active)"}
